Test: solution-phase peptide synthesis; ortho-nitrophenyl active ester, triethylamine
Conditions: coupling step

## tert.Butyloxycarbonyl-L-leucyl-L-leucyl-L-glutaminylglycyl-L-leucyl-L-valinamide
  step yield: 98.4%

— US3944538 (dated 1976)
